Measured values from patent US7271170B2, “Imidazo-pyrimidines and triazolo-pyrimidines: benzodiazepine receptor ligands” (Neurogen Corporation, priority 2003, dated 2007).
pKi: −log10 of the molar value. Some results were stated once for a whole list of compounds, not compound by compound.

Target: benzodiazepine site of the GABAA receptor
Experiment: Ligand binding assay of Example 6 (3H-Ro15-1788 competition, purified rat cortical membranes)

pKi, > 6.00:
CCCc1c(Cn2ccnc2-c2cccc(F)n2)ncn2ccnc12 [Compound 106, 7-[2-(6-fluoro-pyridin-2-yl)-imidazol-1-ylmethyl]-8-propyl-imidazo[1,2-c]pyrimidine]
CCCc1c(Cn2ccnc2-c2cccc(F)n2)nc(C)n2ccnc12 [Compound 119, 7-[2-(6-fluoro-pyridin-2-yl)-imidazol-1-ylmethyl]-5-methyl-8-propyl-imidazo[1,2-c]pyrimidine]
CCCc1c(Cn2ccnc2-c2cccc(F)n2)ncn2cc(C#N)nc12 [Compound 127, 7-[2-(6-fluoro-pyridin-2-yl)-imidazol-1-ylmethyl]-8-propyl-imidazo[1,2-c]pyrimidine-2-carbonitrile]
CCCc1c(Cn2ccnc2-c2cccc(F)n2)ncn2c(C#N)cnc12 [Compound 129, 7-[2-(6-Fluoro-pyridin-2-yl)-imidazol-1-ylmethyl]-8-propyl-imidazo[1,2-c]pyrimidine-3-carbonitrile]
CCCc1c(Cn2ccnc2-c2ncccc2F)ncn2nc(C)nc12 [Compound 130, 7-[2-(3-Fluoro-pyridin-2-yl)-imidazol-1-ylmethyl]-2-methyl-8-propyl-[1,2,4]triazolo[1,5-c]pyrimidine]
CCCc1c(Cn2ccnc2-c2ncccc2F)ncn2nc(-c3ccccc3)nc12 [Compound 155, 7-[2-(3-fluoro-pyridin-2-yl)-imidazol-1-ylmethyl]-2-phenyl-8-propyl-[1,2,4]triazolo[1,5-c]pyrimidine]
CCCc1c(Cn2ccnc2-c2ncccc2F)ncn2nc(C(C)C)nc12 [Compound 156, 7-[2-(3-Fluoro-pyridin-2-yl)-imidazol-1-ylmethyl]-2-isopropyl-8-propyl-[1,2,4]triazolo[1,5-c]pyrimidine]
CCCc1c(Cn2ccnc2-c2ncccc2F)ncn2nc(CF)nc12 [Compound 157, 2-Fluoromethyl-7-[2-(3-fluoro-pyridin-2-yl)-imidazol-1-ylmethyl]-8-propyl-[1,2,4]triazolo[1,5-c]pyrimidine]
Cc1nc2c(CC(F)F)c(Cn3ccnc3-c3ncccc3F)ncn2n1 [Compound 158, 8-(2,2-difluoro-ethyl)-7-[2-(3-fluoro-pyridin-2-yl)-imidazol-1-ylmethyl]-2-methyl-[1,2,4]triazolo[1,5-c]pyrimidine]
CCCc1c(Cn2ccnc2-c2ncccc2C#N)ncn2ncnc12 [Compound 167, 2-[1-(8-Propyl-[1,2,4]triazolo[1,5-c]pyrimidin-7-ylmethyl)-1H-imidazol-2-yl]-nicotinonitrile]
CCCc1c(Cn2ccnc2-c2cccc(C#N)n2)ncn2ncnc12 [Compound 171, 6-[1-(8-Propyl-[1,2,4]triazolo[1,5-c]pyrimidin-7-ylmethyl)-1H-imidazol-2-yl]-pyridine-2-carbonitrile]
CCCc1c(Cn2ccnc2-c2ncccc2F)ncn2nc(N3CCCC3)nc12 [Compound 173, 7-{[2-(3-fluoropyridin-2-yl)-1H-imidazol-1-yl]methyl}-8-propyl-2-pyrrolidin-1-yl[1,2,4]triazolo[1,5-c]pyrimidine]
CCCc1c(Cn2ccnc2-c2ncccc2F)ncn2nc(N)nc12 [Compound 174, 7-{[2-(3-fluoropyridin-2-yl)-1H-imidazol-1-yl]methyl}-8-propyl[1,2,4]triazolo[1,5-c]pyrimidin-2-amine]
CCCc1c(Cn2ccnc2-c2ncccc2F)ncn2nc(Br)nc12 [Compound 175, 2-bromo-7-[2-(3-fluoro-pyridin-2-yl)-imidazol-1-ylmethyl]-8-propyl-[1,2,4]triazolo[1,5-c]pyrimidine]
CCCc1c(Cn2ccnc2-c2ncccc2F)ncn2nc(OC(C)C)nc12 [Compound 176, 7-[2-(3-Fluoro-pyridin-2-yl)-imidazol-1-ylmethyl]-2-isopropoxy-8-propyl-[1,2,4]-triazolo[1,5-c]pyrimidine]
CCCc1c(Cn2ccnc2-c2ncccc2F)ncn2nc(O)nc12 [Compound 177, 7-[2-(3-fluoro-pyridin-2-yl)-imidazol-1-ylmethyl]-8-propyl-[1,2,4]triazolo[1,5-c]pyrimidin-2-ol]
CCCc1c(Cn2ccnc2-c2ncccc2F)ncn2c(C)nnc12 [Compound 186, 7-[2-(3-fluoro-pyridin-2-yl)-imidazol-1-yl-methyl]-3-methyl-8-propyl-[1,2,4]triazolo[4,3-c]pyrimidine]
CCCc1c(Cn2ccnc2-c2ncccc2F)ncn2cnnc12 [Compound 187, 7-[2-(3 -Fluoro-pyridin-2-YL)-imidazol-1-ylmethyl]-8-propyl-[1,2,4]triazolo[4,3-c]-pyrimidine]
CCCc1c(Cn2ccnc2-c2ncccc2F)ncn2c(-c3ccccc3)nnc12 [Compound 188, 7-[2-(3-Fluoro-pyridin-2-YL)-imidazol-1-ylmethyl]-3-phenyl-8-propyl-[1,2,4]-triazolo[4,3-c]pyrimidine]
CCCc1c(Cn2ccnc2-c2ncccc2F)ncn2c(C(F)F)nnc12 [Compound 189, 3-Difluoromethyl-7-[2-(3-fluoro-pyridin-2-yl)-imidazol-1-ylmethyl]-8-propyl-[1,2,4]triazolo[4,3C]pyrimidine]
CCCc1c(Cn2ccnc2-c2cccc(F)n2)ncn2cnc(C)c12 [Compound 213, 7-[2-(6-fluoro-pyridin-2-yl)-imidazol-1-ylmethyl]-1-methyl-8-propyl-imidazo[1,5-c]pyrimidine]
CCCc1c(Cn2ccnc2-c2ncccc2F)ncn2cnc(C)c12 [Compound 216, 7-[2-(3-fluoro-pyridin-2-yl)-imidazol-1-ylmethyl]-1-methyl-8-propyl-imidazo[1,5-c]pyrimidine]
